These are yes or no findings as the source states them, for the method shown. In cells and extracts the contact can be indirect. A yes stands for co-enrichment or nearness to the bait. Other partners may have been found.
Target: T1, High-mobility group box 3 (HMGB3), endogenous (human (endogenous in A2780, SKOV3, UWB1.289)) (UniProt O15347)
T1 sequence: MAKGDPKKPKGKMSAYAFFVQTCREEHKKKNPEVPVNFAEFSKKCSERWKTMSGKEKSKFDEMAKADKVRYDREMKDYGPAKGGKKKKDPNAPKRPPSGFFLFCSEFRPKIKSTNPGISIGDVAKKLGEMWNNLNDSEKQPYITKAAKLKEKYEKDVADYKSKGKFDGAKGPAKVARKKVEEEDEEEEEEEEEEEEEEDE
Assay: affinity purification with mass spectrometry; UWB1.289 lysate (Western and IP Lysis Buffer) immunoprecipitated with anti-HMGB3 or anti-IgG; SDS-PAGE, gel pieces, LC-MS/MS

Amino acid sequences for entries named in this document (tags omitted).
UniProt P09874: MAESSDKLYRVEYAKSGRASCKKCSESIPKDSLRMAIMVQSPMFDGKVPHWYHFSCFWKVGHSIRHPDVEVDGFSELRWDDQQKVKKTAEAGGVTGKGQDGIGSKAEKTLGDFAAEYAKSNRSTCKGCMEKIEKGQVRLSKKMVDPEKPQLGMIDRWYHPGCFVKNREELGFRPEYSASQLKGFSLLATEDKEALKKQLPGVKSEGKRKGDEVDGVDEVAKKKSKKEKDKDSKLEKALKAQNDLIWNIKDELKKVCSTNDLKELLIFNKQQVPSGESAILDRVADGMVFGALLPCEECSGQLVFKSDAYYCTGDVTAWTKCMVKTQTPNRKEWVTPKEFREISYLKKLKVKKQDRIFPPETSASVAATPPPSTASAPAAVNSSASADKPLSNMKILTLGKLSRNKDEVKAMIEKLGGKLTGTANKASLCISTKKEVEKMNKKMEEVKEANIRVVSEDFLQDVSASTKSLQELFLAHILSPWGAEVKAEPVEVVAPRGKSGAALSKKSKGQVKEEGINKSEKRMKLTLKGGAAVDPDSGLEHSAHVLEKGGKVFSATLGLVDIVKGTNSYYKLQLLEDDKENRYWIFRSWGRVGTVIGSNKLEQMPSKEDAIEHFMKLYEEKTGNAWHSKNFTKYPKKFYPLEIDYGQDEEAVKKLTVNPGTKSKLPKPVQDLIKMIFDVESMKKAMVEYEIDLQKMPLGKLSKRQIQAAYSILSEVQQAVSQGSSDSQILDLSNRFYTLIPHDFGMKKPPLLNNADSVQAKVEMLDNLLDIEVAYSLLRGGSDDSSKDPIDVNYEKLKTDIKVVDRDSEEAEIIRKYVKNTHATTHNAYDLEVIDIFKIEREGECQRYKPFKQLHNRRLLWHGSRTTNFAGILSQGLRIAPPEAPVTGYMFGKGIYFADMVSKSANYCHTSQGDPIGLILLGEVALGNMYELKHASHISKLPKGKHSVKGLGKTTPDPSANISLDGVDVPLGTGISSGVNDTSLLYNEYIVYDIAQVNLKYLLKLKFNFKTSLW

binding: binds
Substance: poly (ADP-ribose) polymerase 1 (PARP1), endogenous (from UniProt P09874 1-1014) (enzyme)

Reference: publication PMC8948190
